Source: patent publication US12161653B2, “Treatment of submental fat” (Allergan Sales, LLC, priority 2011, dated 2024)
At least one compound was matched to its structure with a doubt left.

System: submental fat (SMF) deposits
Assay: Example 2 placebo-controlled clinical study, SMF rating scale
Assay type: in vivo, human
Details: week 16
Method: A clinical study was conducted to evaluate the effectiveness of various doses of sodium deoxycholate in removing undesired submental fat (SMF) deposits. A multicenter, randomized, double-blind, placebo-controlled, parallel-group comparison of 3 concentrations of sodium deoxycholate (0.5, 1.0, and 2.0 percent w/v) in sterile water with 0.9% benzyl alcohol and placebo was conducted to determine the efficacy of reduction in SMF deposits. Placebo injection consisted of sterile water with 0.9% benzyl alcohol.
All subjects were to have up to 4 treatment sessions at intervals of no less than 4 weeks (±3 days) between treatments.
Eligible subjects were concurrently randomized into one of the following groups: • Placebo injected every 4 weeks for up to 4 treatments • 0.5% w/v sodium deoxycholate injected every 4 weeks for up to 4 treatments • 1.0% w/v sodium deoxycholate injected every 4 weeks for up to 4 treatments • 2.0% w/v sodium deoxycholate injected every 4 weeks for up to 4 treatments
85 subjects were randomized: 21 subjects to the 0.5% w/v sodium deoxycholate group, 20 subjects to the 1.0% w/v sodium deoxycholate group; 22 subjects to the 2.0% w/v sodium deoxycholate (DCA) group; and 22 subjects to the placebo group. 73 subjects completed the study. […]

C[C@H](CCC(=O)[O-])[C@H]1CC[C@H]2[C@@H]3CC[C@@H]4C[C@H](O)CC[C@]4(C)[C@H]3C[C@H](O)[C@]12C.[Na+] [sodium deoxycholate]
95% CI for least squares mean difference vs placebo, SMF rating scale score (0.5% w/v): −0.9, 0.0
95% CI for least squares mean difference vs placebo, SMF rating scale score (1% w/v): −0.8, 0.0
